Sequences of proteins named here, by UniProt entry; tags and fusion partners are left off.
UniProt P53350, whole entry, looked up: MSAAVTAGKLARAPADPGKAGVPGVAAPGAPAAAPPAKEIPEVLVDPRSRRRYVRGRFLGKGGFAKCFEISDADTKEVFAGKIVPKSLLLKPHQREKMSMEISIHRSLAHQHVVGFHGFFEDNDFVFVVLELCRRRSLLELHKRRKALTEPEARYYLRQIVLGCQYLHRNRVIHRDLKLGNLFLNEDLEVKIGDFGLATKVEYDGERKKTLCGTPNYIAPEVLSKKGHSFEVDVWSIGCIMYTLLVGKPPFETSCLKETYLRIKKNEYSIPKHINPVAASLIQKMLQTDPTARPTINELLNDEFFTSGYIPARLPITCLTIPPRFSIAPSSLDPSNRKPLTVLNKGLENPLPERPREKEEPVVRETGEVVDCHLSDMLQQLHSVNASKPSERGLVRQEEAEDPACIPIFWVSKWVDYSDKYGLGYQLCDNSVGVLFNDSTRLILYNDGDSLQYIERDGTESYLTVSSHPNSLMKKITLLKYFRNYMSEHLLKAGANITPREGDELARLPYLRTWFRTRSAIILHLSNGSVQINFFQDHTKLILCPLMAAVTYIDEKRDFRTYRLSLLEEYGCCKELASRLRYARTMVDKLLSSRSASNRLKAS

The campaign covered roughly 360,000 compounds. About 10,000 (2.8%) were called active. This list was built around the results that the source calls inconclusive (neither active nor inactive); the mix of calls is not that of the screen. The call rests on the fitted dose curve; in most records, active means well fitted inhibition curve with a large enough effect; inconclusive means small, poorly fitted or top-dose-only effect; inactive means flat fitted curve, though single readings scatter. Where the call is inconclusive, the potency comes from a doubtful curve fit.
Each compound was assayed against Serine/threonine-protein kinase PLK1 (Homo sapiens) (UniProt P53350) (assay: qHTS for Inhibitors of PLK1-PDB (polo-like kinase 1 - polo-box domain): Primary Screen). Details: Plk1 PBD binding of FITC phosphopeptide, fluorescence polarization.
For CCCCN1C(=O)/C(=C/c2ccc(N(C)C)cc2)C(=O)N(Cc2ccco2)C1=O, the Potency was inconclusive: 2.38 µM [inhibitor, full curve].
Cc1cc(/C=C2/C(=O)NC(=O)N(Cc3ccco3)C2=O)c(C)n1-c1ccccc1 was tested, and the Potency was inconclusive: 23.8 µM [inhibitor, partial curve].
In the case of Cc1ccc2c(c1)C1C[N+](C)(CC(=O)c3ccc(Cl)cc3Cl)CCC1N2C(=O)c1ccc(F)cc1 (stereo not given), the Potency was inconclusive: 18.9 µM [inhibitor, single point].
With Cc1ccc(-n2nc(C)c3c2OC(N)=C(C#N)C3c2ccc(F)cc2)cc1 (stereo not given) the Potency was inconclusive: 29.9 µM [inhibitor, partial curve].
With COc1ccccc1N1CCN(Cc2cccc(OC)c2O)CC1 the Potency was inconclusive: 23.8 µM [inhibitor, single point].
CCOC(=O)C1CCN(/C=C2/C(=O)NC(=O)N(Cc3ccco3)C2=O)CC1 was tested, and the Potency was inconclusive: 26.7 µM [inhibitor, single point].
With CN(C)c1c([N+](=O)[O-])cc(N2C(=O)C=CC2=O)cc1[N+](=O)[O-] the Potency was active: 2.99 µM.
With O=C(CSCc1ccccc1)Nc1ccc2c(c1)OCO2 the Potency was inconclusive: 29.9 µM [inhibitor, partial curve].
CC(=O)c1c(C)n(CC2CCCO2)c2ccc(O)cc12 (stereo not given) was tested, and the max response, negative = inhibition was inactive: 2.26%.
N#CC1c2ccccc2-n2nncc2CN1Cc1cc(Cl)cc(Cl)c1 (stereo not given) was tested, and the Potency was inconclusive: 10.6 µM [inhibitor, partial curve].
O=C1NC(=S)N(C2CC2)C(=O)/C1=C/c1ccc2c(c1)CCN2CCCCl was tested, and the Potency was active: 1.5 µM.
C[N+]1(C)[C@@H]2CC[C@H]1CC(OC(=O)C(c1ccccc1)c1ccccc1)C2 (stereo not given in full) was tested, and the Potency was active: 21.2 µM.
CC(C)(C)c1ccc(C(=O)NC(=S)Nn2cnnc2)cc1 was tested, and the Potency was inconclusive: 23.8 µM [inhibitor, single point].
With Cc1ccc(OCC(=O)N2CCN(Cc3ccc([N+](=O)[O-])cc3)CC2)cc1 the max response, negative = inhibition was inconclusive: -33.1% [inhibitor].
In the case of CC(=O)C(Sc1ncnc2c1nnn2-c1ccc(F)cc1)C(=O)N(C)C (stereo not given), the Potency was active: 23.8 µM.
In the case of O=C1CC(=O)N(c2ccc(Cl)cc2Cl)C(=O)N1, the max response, negative = inhibition was inactive: -4.32%.
COP(=O)(CC(=O)O)c1ccccc1 (stereo not given) was tested, and the max response, negative = inhibition was inactive: -0.242%.
Cc1cc(-c2ccccc2)cc(C)[n+]1Cc1ccccc1 was tested, and the max response, negative = inhibition was inactive: -14.9%.
COc1cc(/C=C2/SC(=S)N(Cc3ccccc3)C2=O)ccc1OCC(=O)O was tested, and the Potency was inconclusive: 29.9 µM [inhibitor, single point].
In the case of CC(C)CCNC(=O)c1c(N)n(CC2CCCO2)c2nc3ccccc3nc12 (stereo not given), the max response, negative = inhibition was inactive: -8.87%.
C/C(=N\N1CCCCCC1)c1c(O)n(-c2ccccc2C)c(=O)[nH]c1=O was tested, and the max response, negative = inhibition was inactive: -1.1%.
In the case of CCC(C)n1c(O)c(C(c2ccccn2)c2c(O)n(C(C)CC)c(=S)[nH]c2=O)c(=O)[nH]c1=S (stereo not given), the Potency was inconclusive: 37.7 µM [inhibitor, single point].
With CC(C)CNP(=S)(c1ccccc1)C(C)(C)C (stereo not given) the Potency was inconclusive: 29.9 µM [inhibitor, partial curve].
With O=C(COc1ccccc1/C=C1/NC(=O)NC1=O)Nc1ccccc1 the Potency was active: 3.36 µM.
CCCC(=O)NC(Oc1ccc(C(C)=O)cc1)C(Cl)(Cl)Cl (stereo not given) was tested, and the Potency was inconclusive: 15 µM [inhibitor, partial curve].
For O=C1NC(=O)C(=Cc2ccc(-c3ccccc3[N+](=O)[O-])o2)C(=O)N1, the Potency was active: 1.34 µM.
With CCN(CC)c1ccc(NC(=O)c2cccc(C)c2)cc1S(=O)(=O)Nc1ccccc1OC the Potency was active: 2.99 µM.
For O=C(Nc1ccccc1)c1c(O)[nH]c(=O)[nH]c1=O, the max response, negative = inhibition was inactive: -6.39%.
With COc1ccc(CC[n+]2cc(/N=C(\C)[O-])on2)cc1OC the Potency was inconclusive: 37.7 µM [inhibitor, single point].
With O=C1NC(=O)C(=Cc2ccc(-c3ccc(Cl)cc3)o2)C(=O)N1 the Potency was active: 0.67 µM.
O=C1NC(=O)C(=Cc2ccc(N3CCN(C(=O)c4ccccc4)CC3)c([N+](=O)[O-])c2)C(=O)N1 was tested, and the Potency was active: 6.7 µM.
In the case of CC(=O)Nc1cc(-c2ccc(C(=O)NC3CC3)cc2)cn2c(-c3ccc(F)c(Cl)c3)cnc12, the Potency was inconclusive: 15 µM [inhibitor, partial curve].
COC(=O)C(O)(c1ccc(NC(=O)Oc2ccccc2)cc1)C(F)(F)F (stereo not given) was tested, and the max response, negative = inhibition was inconclusive: -30.7% [inhibitor].
With CC(C)c1ccc(-n2c(O)c(C=NC(CCS(C)=O)C(=O)O)c(=O)[nH]c2=S)cc1 (stereo not given) the Potency was inconclusive: 8.44 µM [inhibitor, single point].
O=C1NC(=O)C(=Cc2ccc(Sc3ccccc3)o2)C(=O)N1 was tested, and the Potency was active: 0.67 µM.
With O=c1[nH]c(=O)n(-c2ccccc2F)c(O)c1/C=C1\C=Nc2ccccc21 the Potency was active: 4.23 µM.
For CCN1C(=O)NC(=O)/C(=C\c2cn(CC(=O)N3CCCCC3)c3ccccc23)C1=O, the Potency was inconclusive: 8.44 µM [inhibitor, partial curve].
In the case of COc1ccc(N2C(=O)NC(=O)/C(=C\c3ccccc3[N+](=O)[O-])C2=O)cc1, the Potency was active: 11.9 µM.
CCOC(=O)[C@]12Cc3c(cc(OC)c(OC)c3OC)[C@H]1N(CCC(=O)OC)C(=O)c1ccccc12 was tested, and the Potency was inconclusive: 23.8 µM [inhibitor, single point].
Cc1cccc(N2C(=O)NC(=O)/C(=C/c3ccc([N+](=O)[O-])o3)C2=O)c1 was tested, and the Potency was active: 10.6 µM.
For Cc1c(C=O)c2ccccc2n1Cc1cccc(F)c1, the Potency was inconclusive: 37.7 µM [inhibitor, single point].
With CC(=O)c1ccc(NC2CC(O)C(O)CO2)cc1 (stereo not given) the Potency was inconclusive: 23.8 µM [inhibitor, single point].
For Cc1cccc(C(=O)NC(Oc2ccccc2)C(Cl)(Cl)Cl)c1 (stereo not given), the Potency was active: 15 µM.
With O=C1CCCc2c1nc(-c1ccccc1)n2O the Potency was inconclusive: 29.9 µM [inhibitor, single point].
CC1Cc2ccccc2N1Cc1cccc(S(=O)(=O)N(C)C)c1 (stereo not given) was tested, and the Potency was inconclusive: 29.9 µM [inhibitor, single point].

Source: PubChem BioAssay AID720504 (National Center for Advancing Translational Sciences (NCATS), 2013)
Further: nearly all actives have a fitted effect of over 65% in size.
On the % scale 0 is the no-effect control and ±100 the full control effect; potency means the concentration at half of the fitted maximal effect.
Wherever max response, negative = inhibition is given: series mostly up to about 57 µM.
